From patent US20040210041A1
Results are given in words; binding and its absence hold for the method and conditions named. Some results given as binding are weak or reduced against the parent protein; the word gives no strength.

Protein sequences, listed by entry. Tags and fused reporters are not part of them. Lines headed by an entry give the natural chain unless they say otherwise; changes in a name come on top. Residues count along the entry.
UniProt P35968, residues 20-1356: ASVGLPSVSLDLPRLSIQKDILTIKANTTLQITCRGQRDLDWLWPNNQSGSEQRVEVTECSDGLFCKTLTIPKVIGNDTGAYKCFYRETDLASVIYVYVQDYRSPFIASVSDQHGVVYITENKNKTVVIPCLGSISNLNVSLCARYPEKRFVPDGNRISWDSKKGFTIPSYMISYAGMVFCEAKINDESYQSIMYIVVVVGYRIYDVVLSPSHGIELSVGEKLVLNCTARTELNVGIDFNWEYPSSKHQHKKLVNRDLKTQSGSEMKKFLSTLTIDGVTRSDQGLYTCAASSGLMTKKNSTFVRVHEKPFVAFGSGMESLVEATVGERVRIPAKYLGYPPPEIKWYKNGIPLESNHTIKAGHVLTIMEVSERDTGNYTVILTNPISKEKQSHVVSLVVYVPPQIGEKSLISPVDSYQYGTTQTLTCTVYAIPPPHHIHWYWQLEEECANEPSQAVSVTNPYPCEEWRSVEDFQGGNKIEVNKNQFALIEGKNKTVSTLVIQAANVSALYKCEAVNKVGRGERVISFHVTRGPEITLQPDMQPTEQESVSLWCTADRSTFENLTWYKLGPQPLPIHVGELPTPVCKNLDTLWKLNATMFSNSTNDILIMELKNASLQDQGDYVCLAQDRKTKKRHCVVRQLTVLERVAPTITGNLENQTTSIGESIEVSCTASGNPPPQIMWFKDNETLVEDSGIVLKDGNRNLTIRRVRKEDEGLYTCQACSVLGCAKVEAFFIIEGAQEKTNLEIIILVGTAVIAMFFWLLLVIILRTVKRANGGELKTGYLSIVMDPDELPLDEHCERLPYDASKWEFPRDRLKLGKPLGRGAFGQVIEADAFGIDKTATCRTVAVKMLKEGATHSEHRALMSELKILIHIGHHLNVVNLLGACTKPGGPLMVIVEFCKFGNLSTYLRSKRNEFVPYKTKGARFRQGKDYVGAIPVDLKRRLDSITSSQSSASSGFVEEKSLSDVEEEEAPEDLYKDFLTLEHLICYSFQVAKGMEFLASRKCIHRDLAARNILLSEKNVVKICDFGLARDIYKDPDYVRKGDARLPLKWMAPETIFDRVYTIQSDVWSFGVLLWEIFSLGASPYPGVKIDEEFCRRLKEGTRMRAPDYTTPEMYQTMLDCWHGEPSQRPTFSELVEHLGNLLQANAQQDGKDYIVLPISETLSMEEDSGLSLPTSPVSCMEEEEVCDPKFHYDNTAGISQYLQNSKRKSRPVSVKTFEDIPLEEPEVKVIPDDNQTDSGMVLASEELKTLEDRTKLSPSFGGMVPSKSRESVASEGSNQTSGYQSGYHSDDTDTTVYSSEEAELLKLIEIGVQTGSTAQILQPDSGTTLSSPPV
UniProt P15692: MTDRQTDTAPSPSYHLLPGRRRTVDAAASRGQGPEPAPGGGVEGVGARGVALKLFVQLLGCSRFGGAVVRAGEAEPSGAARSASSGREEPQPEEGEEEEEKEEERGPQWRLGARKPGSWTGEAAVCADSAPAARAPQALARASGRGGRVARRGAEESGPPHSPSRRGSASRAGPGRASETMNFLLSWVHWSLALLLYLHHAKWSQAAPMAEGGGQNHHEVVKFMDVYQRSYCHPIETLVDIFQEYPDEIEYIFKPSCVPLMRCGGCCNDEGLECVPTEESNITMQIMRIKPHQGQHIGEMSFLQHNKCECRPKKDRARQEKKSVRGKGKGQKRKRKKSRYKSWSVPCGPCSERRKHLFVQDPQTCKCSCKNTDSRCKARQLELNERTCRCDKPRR

Columns and labels:
[1] = target: KDR (VEGFR-2), full-length receptor on cells (human) (UniProt P35968); assay: peptide-conjugated microbubbles on KDR-transfected 293H cells with free dimer 1-1000 nM
[2] = target: KDR/VEGF complex on KDR-transfected 293H cells (human) (UniProt P35968+P15692); assay: peptide/125I-streptavidin complex on KDR- vs mock-transfected 293H cells with VEGF

Row | Binder | binding [1] | binding [2]
1 | AQDWYYDEILSMADQLRHAFLSGG (conjugated to microbubbles; derivative not described) [P13 conjugated to microbubbles] | binds | –
2 | AGPGPCKGYMPHQCWYMGTGGGK (Ac-; C-terminal Lys(Biotin-JJ)-NH2) [P30-XB/125I-streptavidin complex] | – | binds
